Some of the results follow. Most entries show no effect beyond the scatter of the controls.

The chains behind the UniProt entries cited, without tags or fusion partners. Where a name states a change or a piece, a line headed by the entry shows the natural chain unless it says otherwise.
UniProt P32780: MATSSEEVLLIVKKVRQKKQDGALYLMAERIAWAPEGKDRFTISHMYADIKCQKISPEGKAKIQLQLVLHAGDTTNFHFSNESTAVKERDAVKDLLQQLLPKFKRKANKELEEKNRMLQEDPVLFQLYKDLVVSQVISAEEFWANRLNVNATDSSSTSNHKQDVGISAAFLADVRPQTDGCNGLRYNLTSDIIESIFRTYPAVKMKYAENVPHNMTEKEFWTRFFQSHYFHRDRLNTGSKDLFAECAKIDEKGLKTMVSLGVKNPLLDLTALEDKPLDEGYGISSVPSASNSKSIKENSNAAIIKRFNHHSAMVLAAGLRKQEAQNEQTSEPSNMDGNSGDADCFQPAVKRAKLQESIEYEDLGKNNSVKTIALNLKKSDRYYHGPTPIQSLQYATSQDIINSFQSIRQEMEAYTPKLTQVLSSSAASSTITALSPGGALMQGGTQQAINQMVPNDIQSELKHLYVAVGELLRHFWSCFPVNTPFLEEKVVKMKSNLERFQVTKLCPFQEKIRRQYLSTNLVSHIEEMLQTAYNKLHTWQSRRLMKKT
UniProt P46019: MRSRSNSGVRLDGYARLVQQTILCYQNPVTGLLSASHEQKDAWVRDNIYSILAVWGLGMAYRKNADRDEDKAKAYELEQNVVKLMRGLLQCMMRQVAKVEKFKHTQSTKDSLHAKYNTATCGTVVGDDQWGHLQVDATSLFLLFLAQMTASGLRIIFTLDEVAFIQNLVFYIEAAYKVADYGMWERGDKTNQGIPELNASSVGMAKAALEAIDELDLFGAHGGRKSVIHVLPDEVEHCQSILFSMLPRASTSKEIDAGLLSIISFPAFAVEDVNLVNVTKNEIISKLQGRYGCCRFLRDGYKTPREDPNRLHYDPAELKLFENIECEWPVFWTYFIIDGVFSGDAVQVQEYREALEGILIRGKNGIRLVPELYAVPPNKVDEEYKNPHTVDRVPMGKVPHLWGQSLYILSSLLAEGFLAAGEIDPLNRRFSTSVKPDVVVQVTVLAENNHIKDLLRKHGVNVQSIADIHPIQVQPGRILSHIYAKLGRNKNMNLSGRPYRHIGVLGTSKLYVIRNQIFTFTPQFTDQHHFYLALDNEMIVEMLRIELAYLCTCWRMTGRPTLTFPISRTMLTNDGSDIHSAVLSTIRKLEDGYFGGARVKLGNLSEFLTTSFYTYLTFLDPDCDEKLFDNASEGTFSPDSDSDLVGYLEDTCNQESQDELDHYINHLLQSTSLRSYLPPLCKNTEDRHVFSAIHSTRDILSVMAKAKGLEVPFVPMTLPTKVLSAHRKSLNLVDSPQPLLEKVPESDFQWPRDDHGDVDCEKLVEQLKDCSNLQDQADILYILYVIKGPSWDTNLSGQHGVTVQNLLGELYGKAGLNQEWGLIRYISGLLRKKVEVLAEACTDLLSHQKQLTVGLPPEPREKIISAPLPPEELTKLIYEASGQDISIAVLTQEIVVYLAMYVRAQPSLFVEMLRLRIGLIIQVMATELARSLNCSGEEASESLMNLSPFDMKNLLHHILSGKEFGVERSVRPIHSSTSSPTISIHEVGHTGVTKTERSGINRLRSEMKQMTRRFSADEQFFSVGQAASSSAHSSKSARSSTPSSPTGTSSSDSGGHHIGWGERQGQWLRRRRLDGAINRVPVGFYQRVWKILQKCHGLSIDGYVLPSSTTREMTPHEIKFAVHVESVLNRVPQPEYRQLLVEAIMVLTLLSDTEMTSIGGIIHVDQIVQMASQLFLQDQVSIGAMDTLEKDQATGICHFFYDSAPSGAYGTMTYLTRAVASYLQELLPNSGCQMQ
UniProt P35269, whole entry: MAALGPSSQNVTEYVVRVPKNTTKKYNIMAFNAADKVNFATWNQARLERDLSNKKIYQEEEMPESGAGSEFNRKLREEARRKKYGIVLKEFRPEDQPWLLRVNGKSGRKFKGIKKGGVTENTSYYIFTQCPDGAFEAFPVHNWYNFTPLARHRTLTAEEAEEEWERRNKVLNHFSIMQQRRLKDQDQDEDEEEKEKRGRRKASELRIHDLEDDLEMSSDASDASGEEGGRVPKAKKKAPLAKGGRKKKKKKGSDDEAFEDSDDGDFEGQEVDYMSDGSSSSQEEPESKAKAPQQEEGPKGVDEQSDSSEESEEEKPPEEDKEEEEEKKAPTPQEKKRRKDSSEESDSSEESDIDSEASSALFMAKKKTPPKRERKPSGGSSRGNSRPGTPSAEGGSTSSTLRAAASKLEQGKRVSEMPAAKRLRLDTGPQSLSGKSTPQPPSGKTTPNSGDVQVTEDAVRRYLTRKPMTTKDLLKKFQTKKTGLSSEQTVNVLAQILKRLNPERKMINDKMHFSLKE
UniProt P41236: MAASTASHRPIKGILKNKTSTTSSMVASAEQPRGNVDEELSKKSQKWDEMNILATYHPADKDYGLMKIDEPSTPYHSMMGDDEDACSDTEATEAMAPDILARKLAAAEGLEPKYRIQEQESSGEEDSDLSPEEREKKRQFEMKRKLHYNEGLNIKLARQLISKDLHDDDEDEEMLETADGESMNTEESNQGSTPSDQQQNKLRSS
UniProt P46060: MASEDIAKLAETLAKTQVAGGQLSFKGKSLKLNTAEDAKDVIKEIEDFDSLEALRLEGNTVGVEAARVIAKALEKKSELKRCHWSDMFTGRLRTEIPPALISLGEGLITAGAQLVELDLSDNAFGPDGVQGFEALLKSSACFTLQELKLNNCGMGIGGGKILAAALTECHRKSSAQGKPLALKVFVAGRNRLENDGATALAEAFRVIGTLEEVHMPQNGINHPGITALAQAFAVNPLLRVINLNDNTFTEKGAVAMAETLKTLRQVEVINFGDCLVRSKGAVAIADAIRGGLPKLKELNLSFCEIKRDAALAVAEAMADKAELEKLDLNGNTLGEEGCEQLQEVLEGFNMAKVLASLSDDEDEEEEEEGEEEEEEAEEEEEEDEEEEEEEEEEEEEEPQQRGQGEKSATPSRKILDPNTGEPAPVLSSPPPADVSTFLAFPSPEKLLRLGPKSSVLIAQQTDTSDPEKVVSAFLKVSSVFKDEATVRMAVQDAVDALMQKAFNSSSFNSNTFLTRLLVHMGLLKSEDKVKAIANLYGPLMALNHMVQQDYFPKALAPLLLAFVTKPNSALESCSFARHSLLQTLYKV
UniProt P32019: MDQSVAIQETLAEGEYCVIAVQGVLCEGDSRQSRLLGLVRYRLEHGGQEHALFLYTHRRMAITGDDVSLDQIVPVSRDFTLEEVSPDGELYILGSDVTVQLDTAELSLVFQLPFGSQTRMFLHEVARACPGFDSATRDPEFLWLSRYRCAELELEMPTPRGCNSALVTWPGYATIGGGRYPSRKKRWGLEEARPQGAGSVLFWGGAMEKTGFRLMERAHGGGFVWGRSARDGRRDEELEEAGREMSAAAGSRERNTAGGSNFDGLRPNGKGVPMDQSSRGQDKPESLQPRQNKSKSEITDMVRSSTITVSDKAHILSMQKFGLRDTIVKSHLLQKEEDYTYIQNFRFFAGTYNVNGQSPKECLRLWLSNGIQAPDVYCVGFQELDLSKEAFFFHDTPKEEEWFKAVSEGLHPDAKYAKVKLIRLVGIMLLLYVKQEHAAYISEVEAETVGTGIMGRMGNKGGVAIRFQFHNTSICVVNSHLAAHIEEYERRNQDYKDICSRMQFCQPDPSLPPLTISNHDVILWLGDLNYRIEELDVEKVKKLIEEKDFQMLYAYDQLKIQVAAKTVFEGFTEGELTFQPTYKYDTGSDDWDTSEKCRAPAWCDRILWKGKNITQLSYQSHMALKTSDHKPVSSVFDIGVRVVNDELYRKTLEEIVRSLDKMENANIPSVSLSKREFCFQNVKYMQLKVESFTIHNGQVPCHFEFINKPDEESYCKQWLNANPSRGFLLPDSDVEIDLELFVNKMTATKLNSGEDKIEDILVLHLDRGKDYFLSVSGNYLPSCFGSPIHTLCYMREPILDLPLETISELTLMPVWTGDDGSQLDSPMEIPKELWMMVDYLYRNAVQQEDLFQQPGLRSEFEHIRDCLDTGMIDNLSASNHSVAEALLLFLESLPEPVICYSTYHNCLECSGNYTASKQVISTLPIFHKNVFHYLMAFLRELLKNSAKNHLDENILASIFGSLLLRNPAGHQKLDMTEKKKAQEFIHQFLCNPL
UniProt P30520: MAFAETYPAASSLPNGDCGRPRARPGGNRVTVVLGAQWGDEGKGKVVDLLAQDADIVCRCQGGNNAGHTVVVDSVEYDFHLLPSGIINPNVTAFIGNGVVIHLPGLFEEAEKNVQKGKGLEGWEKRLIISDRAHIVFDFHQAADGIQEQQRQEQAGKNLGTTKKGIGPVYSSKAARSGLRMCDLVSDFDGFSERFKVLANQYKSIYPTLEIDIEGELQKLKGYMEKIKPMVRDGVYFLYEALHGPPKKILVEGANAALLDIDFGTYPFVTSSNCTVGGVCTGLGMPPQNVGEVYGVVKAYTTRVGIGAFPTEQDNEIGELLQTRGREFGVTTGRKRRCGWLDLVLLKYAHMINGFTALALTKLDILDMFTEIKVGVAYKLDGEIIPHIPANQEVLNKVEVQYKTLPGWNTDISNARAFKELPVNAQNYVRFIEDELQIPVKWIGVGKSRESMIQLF
UniProt P34897: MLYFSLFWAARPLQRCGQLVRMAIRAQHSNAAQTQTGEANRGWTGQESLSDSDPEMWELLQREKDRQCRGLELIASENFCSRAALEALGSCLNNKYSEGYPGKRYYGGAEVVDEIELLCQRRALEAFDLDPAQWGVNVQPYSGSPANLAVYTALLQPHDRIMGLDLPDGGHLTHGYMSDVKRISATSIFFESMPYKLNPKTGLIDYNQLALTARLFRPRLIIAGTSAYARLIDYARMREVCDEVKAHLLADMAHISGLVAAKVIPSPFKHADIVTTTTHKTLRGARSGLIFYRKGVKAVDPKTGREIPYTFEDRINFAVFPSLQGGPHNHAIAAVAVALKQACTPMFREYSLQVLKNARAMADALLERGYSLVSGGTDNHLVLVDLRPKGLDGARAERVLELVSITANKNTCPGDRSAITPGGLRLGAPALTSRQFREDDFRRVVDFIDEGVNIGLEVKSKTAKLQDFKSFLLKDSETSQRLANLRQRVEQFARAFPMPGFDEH
UniProt P40121: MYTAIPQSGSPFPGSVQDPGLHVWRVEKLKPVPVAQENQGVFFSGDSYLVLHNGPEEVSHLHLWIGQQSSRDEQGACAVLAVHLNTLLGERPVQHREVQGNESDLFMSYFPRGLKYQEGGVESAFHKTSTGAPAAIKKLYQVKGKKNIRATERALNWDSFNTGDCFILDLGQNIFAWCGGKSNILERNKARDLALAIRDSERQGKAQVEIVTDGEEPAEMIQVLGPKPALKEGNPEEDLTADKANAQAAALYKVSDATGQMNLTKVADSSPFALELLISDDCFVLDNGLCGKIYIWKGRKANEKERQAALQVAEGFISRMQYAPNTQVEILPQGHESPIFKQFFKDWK
UniProt P36508: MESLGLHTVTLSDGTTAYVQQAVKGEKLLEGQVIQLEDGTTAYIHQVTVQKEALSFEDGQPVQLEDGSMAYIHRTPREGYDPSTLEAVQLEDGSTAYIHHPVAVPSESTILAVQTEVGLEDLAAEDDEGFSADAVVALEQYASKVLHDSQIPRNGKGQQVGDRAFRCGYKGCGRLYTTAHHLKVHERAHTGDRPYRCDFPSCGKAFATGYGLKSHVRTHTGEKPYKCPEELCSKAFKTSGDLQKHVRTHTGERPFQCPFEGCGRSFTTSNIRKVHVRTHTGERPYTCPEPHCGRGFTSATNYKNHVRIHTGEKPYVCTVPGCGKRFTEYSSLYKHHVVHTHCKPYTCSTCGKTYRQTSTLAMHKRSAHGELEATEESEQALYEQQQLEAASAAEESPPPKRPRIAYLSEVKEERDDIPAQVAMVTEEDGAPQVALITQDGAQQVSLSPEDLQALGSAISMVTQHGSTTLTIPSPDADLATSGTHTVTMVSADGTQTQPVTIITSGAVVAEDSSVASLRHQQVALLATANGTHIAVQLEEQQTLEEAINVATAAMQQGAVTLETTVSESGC
UniProt P35237: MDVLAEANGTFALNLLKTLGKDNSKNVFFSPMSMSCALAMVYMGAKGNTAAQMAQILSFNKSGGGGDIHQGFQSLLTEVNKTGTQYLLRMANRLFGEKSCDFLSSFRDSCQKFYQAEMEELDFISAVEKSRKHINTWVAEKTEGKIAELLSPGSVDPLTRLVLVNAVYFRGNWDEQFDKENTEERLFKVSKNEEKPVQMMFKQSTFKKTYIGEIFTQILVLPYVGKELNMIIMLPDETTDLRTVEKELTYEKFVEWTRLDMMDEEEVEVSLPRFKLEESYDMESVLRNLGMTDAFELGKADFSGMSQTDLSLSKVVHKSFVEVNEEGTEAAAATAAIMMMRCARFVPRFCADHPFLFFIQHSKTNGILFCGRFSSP
UniProt P39687: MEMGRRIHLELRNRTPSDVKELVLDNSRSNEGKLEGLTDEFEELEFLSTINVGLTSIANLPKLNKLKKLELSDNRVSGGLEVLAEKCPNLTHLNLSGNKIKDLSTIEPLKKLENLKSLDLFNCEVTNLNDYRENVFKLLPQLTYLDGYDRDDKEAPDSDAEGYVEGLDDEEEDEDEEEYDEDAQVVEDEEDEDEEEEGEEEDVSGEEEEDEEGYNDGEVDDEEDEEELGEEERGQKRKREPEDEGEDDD

Compound in the assay: CN[C@@H]1C[C@H]2O[C@@](C)([C@@H]1OC)n1c3ccccc3c3c4c(c5c6ccccc6n2c5c31)C(=O)NC4 [staurosporine]
Briefly: log2 fold change of tryptic peptide abundance, ligand vs vehicle (limited proteolysis) (log2 ratio); higher = more trypsin-susceptible (destabilized). Particulars: ligand concentration: 20 uM; sample: K562 cleared lysate; digestion: 4 min, 22 C (HT-PELSA RT4min, Orbitrap Astral).
With “UniProt P41279 (peptide sequence: VYLAQDIK, peptide start residue: 152)”, the log2 fold change stood at 0.256.
As for “YWHAB (peptide sequence: AVTEQGHELSNEER, peptide start residue: 30) (UniProt P31946)”, the figure is -0.122; as for “TIA1 (peptide sequence: GYGFVSFFNK, peptide start residue: 148) (UniProt P31483)”, -0.173.
The value for “ACADSB (peptide sequence: LFDFQGLQHQVAHVATQLEAAR, peptide start residue: 326) (UniProt P45954)” was -0.485.
The value for “TALDO1 (peptide sequence: LLGELLQDNAK, peptide start residue: 259) (UniProt P37837)” was 0.23.
As to “GTF2H1 (peptide sequence: TIALNLKK, peptide start residue: 371) (UniProt P32780)”, the log2 fold change came out at 0.232.
The value for “UniProt P42285 (peptide sequence: VKNSEEQYNK, peptide start residue: 605)” was 0.306; that for “SOX11 (peptide sequence: APAAAGAK, peptide start residue: 172) (UniProt P35716)” was 0.144; that for “PHKA2 (peptide sequence: RFSADEQFFSVGQAASSSAHSSK, peptide start residue: 1013) (UniProt P46019)” was 0.53.
“GTF2F1 (peptide sequence: MINDKMHFSLKE, peptide start residue: 506) (UniProt P35269)”: the log2 fold change was -0.17.
The value for “NMT1 (peptide sequence: EKGSETDSAQDQPVK, peptide start residue: 66) (UniProt P30419)” was -0.148; that for “SHMT1 (peptide sequence: DADLWSSHDK, peptide start residue: 11) (UniProt P34896)” was 0.214; that for “PPP1R2 (peptide sequence: GNVDEELSK, peptide start residue: 34) (UniProt P41236)” was 0.252.
As for “EVI2B (peptide sequence: STLLADDLEIK, peptide start residue: 280) (UniProt P34910)”, the figure is -0.209; as for “LRPPRC (peptide sequence: SCGSLLPELK, peptide start residue: 129) (UniProt P42704)”, 0.146.
As for “SREBF1 (peptide sequence: TAHNAIEKR, peptide start residue: 326) (UniProt P36956)”, the figure is 0.433; as for “DLST (peptide sequence: LGFMSAFVK, peptide start residue: 278) (UniProt P36957)”, -0.224; as for “HTT (peptide sequence: GIVEQEIQAMVSKR, peptide start residue: 2552) (UniProt P42858)”, 0.39.
Regarding “UniProt P42126 (peptide sequence: DTLENTIGHR, peptide start residue: 191)”, the log2 fold change was determined as 0.57.
As for “RRM2 (peptide sequence: EIIINAVR, peptide start residue: 291) (UniProt P31350)”, the figure is -0.435.
As for “RANGAP1 (peptide sequence: SLKLNTAEDAK, peptide start residue: 29) (UniProt P46060)”, the figure is 0.686; as for “PNPLA4 (peptide sequence: TVTISPFSGR, peptide start residue: 178) (UniProt P41247)”, -0.26; as for “UniProt P41227 (peptide sequence: DLSEVSETTESTDVK, peptide start residue: 211)”, -0.52.
The value for “INPP5B (peptide sequence: SSTITVSDK, peptide start residue: 304) (UniProt P32019)” was -0.119.
As for “UniProt P30520 (peptide sequence: ELPVNAQNYVR, peptide start residue: 420)”, the log2 fold change is 0.205.
As for “CDC25A (peptide sequence: GCLHSHGLQEGK, peptide start residue: 158) (UniProt P30304)”, the figure is 0.248; as for “SHMT2 (peptide sequence: IMGLDLPDGGHLTHGYMSDVKR, peptide start residue: 161) (UniProt P34897)”, -0.392.
As for “TXLNA (peptide sequence: LIEQYELREEHIDK, peptide start residue: 312) (UniProt P40222)”, the figure is 0.689.
As for “MYH10 (peptide sequence: KHQQLLEEK, peptide start residue: 881) (UniProt P35580)”, the figure is 0.279.
For the target “MAT2A (peptide sequence: TAAYGHFGR, peptide start residue: 374) (UniProt P31153)”, the log2 fold change is 0.19.
In the case of “GTF2E1 (peptide sequence: YKLDHMR, peptide start residue: 105) (UniProt P29083)”, the log2 fold change came out at 0.361.
As for “SDHA (peptide sequence: TGHSLLHTLYGR, peptide start residue: 196) (UniProt P31040)”, the figure is 0.452.
In the case of “CAPG (peptide sequence: EGNPEEDLTADK, peptide start residue: 232) (UniProt P40121)”, the log2 fold change came to 0.353.
As for “FDFT1 (peptide sequence: CLGHPEEFYNLVR, peptide start residue: 6) (UniProt P37268)”, the figure is 0.0462; as for “ZNF76 (peptide sequence: FTEYSSLYK, peptide start residue: 398) (UniProt P36508)”, -0.132.
As for “CASP3 (peptide sequence: SGTDVDAANLR, peptide start residue: 65) (UniProt P42574)”, the figure is 0.389; as for “SERPINB6 (peptide sequence: LVLVNAVYFR, peptide start residue: 161) (UniProt P35237)”, 0.467; as for “ANP32A (peptide sequence: KREPEDEGEDDD, peptide start residue: 238) (UniProt P39687)”, -0.21.
As for “PKLR (peptide sequence: VGDLVIVVTGWRPGSGYTNIMR, peptide start residue: 548) (UniProt P30613)”, the figure is -0.517.

Values taken from the supplement of paper PMC12819154, “High-throughput peptide-centric local stability assay extends protein–ligand identification to membrane proteins, tissues and bacteria” (Nature Structural & Molecular Biology, 2025).
